Tested on: ventricular myocytes from chicken embryos
Experiment: extracellular MEA field potential (FPdur) measurement on spontaneously beating heart cells
Format: cell-based
Procedure: The heart muscle cells were obtained by trypsin digestion of the isolated ventricle of chicken embryos (10-12 days after fertilization). The heart was freed of blood vessels and atria. The cells were cultured in MEM medium supplemented with 10% fetal calf serum (FCS). One to two days before the measurement, the medium was replaced by standard Tyrode solution.
The standard Tyrode solution was then replaced by a Tyrode solution with 5 μM of a test substance and the change in FPdur was determined. Thereafter, the concentration of the test substance was increased in logarithmic steps. A measurement was now taken every 10 minutes.
In measurements with quinidine, 0.5% DMSO was added to the cell Tyrode since quinidine is not water-soluble. The control experiment was also carried out with DMSO here.
In these qualitative evaluations, i.e. comparison of data from the respective control experiment and the data derived from addition of the QT-modifying substance, possible changes in the heart rate were taken into account.
For the normalized case, the FPdur value was divided by the square root of the time span (in seconds) between two action potentials.

## CCCCc1oc2ccccc2c1C(=O)c1cc(I)c(OCCN(CC)CC)c(I)c1 [amiodarone]
  effect on the QT interval: prolongating effect
